Data published in the supplement of paper PMC7661543.
Differences between knockout arms are mostly noise.

System: MDA-MB-231
Experiment: relative cell number vs DMSO control (72 h) (% of DMSO); higher = less growth inhibition (more cells)
Experimental: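 QMAP-Seq: a pool of 5 breast cancer cell lines (ZR-75-1, SKBR3, HCC-38, MDA-MB-231, BT-20), each carrying 12 doxycycline-inducible Cas9 sgRNA perturbations (11 knockouts plus non-targeting sgNT), was treated with compounds for 72 h at four 10-fold doses (10 nM-10 uM or 1 nM-1 uM range). Barcodes were amplified and sequenced, and cell number was interpolated from 293T spike-in standard curves. The result is expressed as % of the median of DMSO wells. Two biological replicates.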

CCC(C)(C)C(=O)O[C@H]1C[C@@H](C)C=C2C=C[C@H](C)[C@H](CC[C@@H]3C[C@@H](O)CC(=O)O3)[C@H]21 [Simvastatin]
Conditions | relative cell number
sgRNA knockout: sgATF3, 10 nM | 89.1
sgRNA knockout: sgATF3, 100 nM | 92.4
sgRNA knockout: sgATF3, 1000 nM | 96.9
sgRNA knockout: sgATF3, 10000 nM | 33.8
sgRNA knockout: sgATF4, 10 nM | 97.1
sgRNA knockout: sgATF4, 100 nM | 96
sgRNA knockout: sgATF4, 1000 nM | 110
sgRNA knockout: sgATF4, 10000 nM | 26.3
sgRNA knockout: sgATF6, 10 nM | 109
sgRNA knockout: sgATF6, 100 nM | 100
sgRNA knockout: sgATF6, 1000 nM | 96.6
sgRNA knockout: sgATF6, 10000 nM | 25.7
sgRNA knockout: sgATG7, 10 nM | 93.2
sgRNA knockout: sgATG7, 100 nM | 85.4
sgRNA knockout: sgATG7, 1000 nM | 83.8
sgRNA knockout: sgATG7, 10000 nM | 32
sgRNA knockout: sgERN1, 10 nM | 93
sgRNA knockout: sgERN1, 100 nM | 87.3
sgRNA knockout: sgERN1, 1000 nM | 96.5
sgRNA knockout: sgERN1, 10000 nM | 38.55
sgRNA knockout: sgHSF1, 10 nM | 83.6
sgRNA knockout: sgHSF1, 100 nM | 85.6
sgRNA knockout: sgHSF1, 1000 nM | 85.6
sgRNA knockout: sgHSF1, 10000 nM | 35.4
sgRNA knockout: sgHSF2, 10 nM | 87.5
sgRNA knockout: sgHSF2, 100 nM | 105.3
sgRNA knockout: sgHSF2, 1000 nM | 94.06
sgRNA knockout: sgHSF2, 10000 nM | 22.9
sgRNA knockout: sgKEAP1, 10 nM | 101
sgRNA knockout: sgKEAP1, 100 nM | 94.1
sgRNA knockout: sgKEAP1, 1000 nM | 94.9
sgRNA knockout: sgKEAP1, 10000 nM | 39.7
sgRNA knockout: sgNFE2L2, 10 nM | 79.4
sgRNA knockout: sgNFE2L2, 100 nM | 98.9
sgRNA knockout: sgNFE2L2, 1000 nM | 84
sgRNA knockout: sgNFE2L2, 10000 nM | 30.3
sgRNA knockout: sgSLC35F2, 10 nM | 90.9
sgRNA knockout: sgSLC35F2, 100 nM | 79.3
sgRNA knockout: sgSLC35F2, 1000 nM | 89.7
sgRNA knockout: sgSLC35F2, 10000 nM | 31.9
sgRNA knockout: sgXBP1, 10 nM | 82.3
sgRNA knockout: sgXBP1, 100 nM | 103
sgRNA knockout: sgXBP1, 1000 nM | 78.7
sgRNA knockout: sgXBP1, 10000 nM | 33.1

CN1CCN(c2ccc(C(=O)Nc3n[nH]c4ccc(Cc5cc(F)cc(F)c5)cc34)c(NC3CCOCC3)c2)CC1 [Entrectinib]
Conditions | relative cell number
sgRNA knockout: sgATF3, 1 nM | 98.2
sgRNA knockout: sgATF3, 10 nM | 102
sgRNA knockout: sgATF3, 100 nM | 103
sgRNA knockout: sgATF3, 1000 nM | 79.1
sgRNA knockout: sgATF4, 1 nM | 76.2
sgRNA knockout: sgATF4, 10 nM | 131
sgRNA knockout: sgATF4, 100 nM | 113
sgRNA knockout: sgATF4, 1000 nM | 112
sgRNA knockout: sgATF6, 1 nM | 109
sgRNA knockout: sgATF6, 10 nM | 77.5
sgRNA knockout: sgATF6, 100 nM | 86.2
sgRNA knockout: sgATF6, 1000 nM | 82.2
sgRNA knockout: sgATG7, 1 nM | 74.7
sgRNA knockout: sgATG7, 10 nM | 81.4
sgRNA knockout: sgATG7, 100 nM | 99.5
sgRNA knockout: sgATG7, 1000 nM | 71.4
sgRNA knockout: sgERN1, 1 nM | 87.5
sgRNA knockout: sgERN1, 10 nM | 89.1
sgRNA knockout: sgERN1, 100 nM | 124
sgRNA knockout: sgERN1, 1000 nM | 81.78
sgRNA knockout: sgHSF1, 1 nM | 101
sgRNA knockout: sgHSF1, 10 nM | 96.3
sgRNA knockout: sgHSF1, 100 nM | 95.68
sgRNA knockout: sgHSF1, 1000 nM | 80.3
sgRNA knockout: sgHSF2, 1 nM | 115
sgRNA knockout: sgHSF2, 10 nM | 98.6
sgRNA knockout: sgHSF2, 100 nM | 100
sgRNA knockout: sgHSF2, 1000 nM | 81.3
sgRNA knockout: sgKEAP1, 1 nM | 82.1
sgRNA knockout: sgKEAP1, 10 nM | 83.8
sgRNA knockout: sgKEAP1, 100 nM | 108
sgRNA knockout: sgKEAP1, 1000 nM | 63.756
sgRNA knockout: sgNFE2L2, 1 nM | 98.6
sgRNA knockout: sgNFE2L2, 10 nM | 85
sgRNA knockout: sgNFE2L2, 100 nM | 102
sgRNA knockout: sgNFE2L2, 1000 nM | 77.9
sgRNA knockout: sgSLC35F2, 1 nM | 101
sgRNA knockout: sgSLC35F2, 10 nM | 90.3
sgRNA knockout: sgSLC35F2, 100 nM | 103.4
sgRNA knockout: sgSLC35F2, 1000 nM | 88.6
sgRNA knockout: sgXBP1, 1 nM | 104
sgRNA knockout: sgXBP1, 10 nM | 94.7
sgRNA knockout: sgXBP1, 100 nM | 101
sgRNA knockout: sgXBP1, 1000 nM | 66.6

S=c1nc[nH]c2nc[nH]c12 [6-Mercaptopurine]
Conditions | relative cell number
sgRNA knockout: sgATF3, 10 nM | 106
sgRNA knockout: sgATF3, 100 nM | 68.09
sgRNA knockout: sgATF3, 1000 nM | 53.8
sgRNA knockout: sgATF3, 10000 nM | 56.8
sgRNA knockout: sgATF4, 10 nM | 111
sgRNA knockout: sgATF4, 100 nM | 78.1
sgRNA knockout: sgATF4, 1000 nM | 58.6
sgRNA knockout: sgATF4, 10000 nM | 58.1
sgRNA knockout: sgATF6, 10 nM | 108.2
sgRNA knockout: sgATF6, 100 nM | 68.9
sgRNA knockout: sgATF6, 1000 nM | 63.8
sgRNA knockout: sgATF6, 10000 nM | 60
sgRNA knockout: sgATG7, 10 nM | 93.1
sgRNA knockout: sgATG7, 100 nM | 65.7
sgRNA knockout: sgATG7, 1000 nM | 67.63
sgRNA knockout: sgATG7, 10000 nM | 58.2
sgRNA knockout: sgERN1, 10 nM | 107
sgRNA knockout: sgERN1, 100 nM | 101.8
sgRNA knockout: sgERN1, 1000 nM | 49.2
sgRNA knockout: sgERN1, 10000 nM | 57.7
sgRNA knockout: sgHSF1, 10 nM | 106
sgRNA knockout: sgHSF1, 100 nM | 101
sgRNA knockout: sgHSF1, 1000 nM | 55
sgRNA knockout: sgHSF1, 10000 nM | 61.3
sgRNA knockout: sgHSF2, 10 nM | 112
sgRNA knockout: sgHSF2, 100 nM | 101
sgRNA knockout: sgHSF2, 1000 nM | 57.4
sgRNA knockout: sgHSF2, 10000 nM | 46.1
sgRNA knockout: sgKEAP1, 10 nM | 96.8
sgRNA knockout: sgKEAP1, 100 nM | 76.8
sgRNA knockout: sgKEAP1, 1000 nM | 56.6
sgRNA knockout: sgKEAP1, 10000 nM | 62.4
sgRNA knockout: sgNFE2L2, 10 nM | 93.2
sgRNA knockout: sgNFE2L2, 100 nM | 103
sgRNA knockout: sgNFE2L2, 1000 nM | 68.8
sgRNA knockout: sgNFE2L2, 10000 nM | 59.9
sgRNA knockout: sgSLC35F2, 10 nM | 115
sgRNA knockout: sgSLC35F2, 100 nM | 82.45
sgRNA knockout: sgSLC35F2, 1000 nM | 47.6
sgRNA knockout: sgSLC35F2, 10000 nM | 52.9
sgRNA knockout: sgXBP1, 10 nM | 103
sgRNA knockout: sgXBP1, 100 nM | 95.3
sgRNA knockout: sgXBP1, 1000 nM | 62.9
sgRNA knockout: sgXBP1, 10000 nM | 58.8

CC(C)(C#N)c1ccc(N2C(=O)OCc3cnc4ccc(-c5cnc6ccccc6c5)cc4c32)cc1
Conditions | relative cell number
sgRNA knockout: sgATF3, 10 nM | 99.87
sgRNA knockout: sgATF3, 100 nM | 94.7
sgRNA knockout: sgATF3, 1000 nM | 83.3
sgRNA knockout: sgATF3, 10000 nM | 56
sgRNA knockout: sgATF4, 10 nM | 97.9
sgRNA knockout: sgATF4, 100 nM | 121
sgRNA knockout: sgATF4, 1000 nM | 82.6
sgRNA knockout: sgATF4, 10000 nM | 73.9
sgRNA knockout: sgATF6, 10 nM | 127
sgRNA knockout: sgATF6, 100 nM | 85
sgRNA knockout: sgATF6, 1000 nM | 76.5
sgRNA knockout: sgATF6, 10000 nM | 46.6
sgRNA knockout: sgATG7, 10 nM | 90
sgRNA knockout: sgATG7, 100 nM | 107
sgRNA knockout: sgATG7, 1000 nM | 103
sgRNA knockout: sgATG7, 10000 nM | 61.43
sgRNA knockout: sgERN1, 10 nM | 111
sgRNA knockout: sgERN1, 100 nM | 80.5
sgRNA knockout: sgERN1, 1000 nM | 91
sgRNA knockout: sgERN1, 10000 nM | 68
sgRNA knockout: sgHSF1, 10 nM | 98.3
sgRNA knockout: sgHSF1, 100 nM | 98.9
sgRNA knockout: sgHSF1, 1000 nM | 80.3
sgRNA knockout: sgHSF1, 10000 nM | 59.9
sgRNA knockout: sgHSF2, 10 nM | 101
sgRNA knockout: sgHSF2, 100 nM | 98.6
sgRNA knockout: sgHSF2, 1000 nM | 95.8
sgRNA knockout: sgHSF2, 10000 nM | 59.8
sgRNA knockout: sgKEAP1, 10 nM | 117.4
sgRNA knockout: sgKEAP1, 100 nM | 96.9
sgRNA knockout: sgKEAP1, 1000 nM | 84
sgRNA knockout: sgKEAP1, 10000 nM | 50.8
sgRNA knockout: sgNFE2L2, 10 nM | 102
sgRNA knockout: sgNFE2L2, 100 nM | 90.6
sgRNA knockout: sgNFE2L2, 1000 nM | 91.8
sgRNA knockout: sgNFE2L2, 10000 nM | 59.2
sgRNA knockout: sgSLC35F2, 10 nM | 94.3
sgRNA knockout: sgSLC35F2, 100 nM | 92.6
sgRNA knockout: sgSLC35F2, 1000 nM | 68.1
sgRNA knockout: sgSLC35F2, 10000 nM | 66.2
sgRNA knockout: sgXBP1, 10 nM | 82.93
sgRNA knockout: sgXBP1, 100 nM | 74.7
sgRNA knockout: sgXBP1, 1000 nM | 89.8
sgRNA knockout: sgXBP1, 10000 nM | 63.8
